{"source": "PubChem BioAssay AID1224830, NIAID | 2016", "test": "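Genes whose knock-down alters the TNF-alpha reporter response to LPS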 (primary screen)", "system": "human THP-1 monocytic leukaemia cells, TNF dual-luciferase reporter clone, PMA-differentiated to macrophage-like cells", "knock-down reagent": "siRNA pool against human genes, 50 nM", "time to read-out": "LPS for 4 h, given about 3 days after siRNA transfection", "challenge": "bacterial LPS (TLR4 ligand), 10 ng/ml", "measured": "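Ratio of firefly to renilla light, scaled to the plate median and expressed as a robust z-score per replicate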", "reading the numbers": "TNF reporter robust z-score: higher = stronger TNF reporter response to LPS", "call rule": "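Each well counts as active if its z-score is over 2.8 or under -1.5; controls are left without a call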", "note": "The deposit covers about 18,000 reagents; shown is an unselected part. About 2,900 of all reagents (16%) count as active. 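Calls are made per well; low scores hint the gene aids the LPS response, high scores that it dampens it.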 Repeated entries: four replicate wells of each siRNA pool."}
{"Target gene": "ETV3", "TNF reporter robust z-score": 0.88, "activity call": "inactive"}
{"Target gene": "ETV3", "TNF reporter robust z-score": 1.48, "activity call": "inactive"}
{"Target gene": "ETV3", "TNF reporter robust z-score": 1.1, "activity call": "inactive"}
{"Target gene": "ETV3", "TNF reporter robust z-score": 0.85, "activity call": "inactive"}
{"Target gene": "PHOSPHO1", "TNF reporter robust z-score": -0.27, "activity call": "inactive"}
{"Target gene": "PHOSPHO1", "TNF reporter robust z-score": 0.41, "activity call": "inactive"}
{"Target gene": "PHOSPHO1", "TNF reporter robust z-score": -0.85, "activity call": "inactive"}
{"Target gene": "PHOSPHO1", "TNF reporter robust z-score": 0.19, "activity call": "inactive"}
{"Target gene": "ARHGEF25", "TNF reporter robust z-score": 0.14, "activity call": "inactive"}
{"Target gene": "ARHGEF25", "TNF reporter robust z-score": 0.34, "activity call": "inactive"}
{"Target gene": "ARHGEF25", "TNF reporter robust z-score": 0.01, "activity call": "inactive"}
{"Target gene": "ARHGEF25", "TNF reporter robust z-score": 0.68, "activity call": "inactive"}
{"Target gene": "PIGZ", "TNF reporter robust z-score": -0.63, "activity call": "inactive"}
{"Target gene": "PIGZ", "TNF reporter robust z-score": -0.92, "activity call": "inactive"}
{"Target gene": "PIGZ", "TNF reporter robust z-score": -0.87, "activity call": "inactive"}
{"Target gene": "PIGZ", "TNF reporter robust z-score": -1.19, "activity call": "inactive"}
{"Target gene": "SH3BP4", "TNF reporter robust z-score": 0.81, "activity call": "inactive"}
{"Target gene": "SH3BP4", "TNF reporter robust z-score": 1.72, "activity call": "inactive"}
{"Target gene": "SH3BP4", "TNF reporter robust z-score": -0.27, "activity call": "inactive"}
{"Target gene": "SH3BP4", "TNF reporter robust z-score": 1.38, "activity call": "inactive"}
{"Target gene": "TRIAP1", "TNF reporter robust z-score": -0.7, "activity call": "inactive"}
{"Target gene": "TRIAP1", "TNF reporter robust z-score": -0.2, "activity call": "inactive"}
{"Target gene": "TRIAP1", "TNF reporter robust z-score": -0.3, "activity call": "inactive"}
{"Target gene": "TRIAP1", "TNF reporter robust z-score": -0.62, "activity call": "inactive"}

3 consecutive records from above, for reference:
{"Target gene": "SH3BP4", "TNF reporter robust z-score": 1.38, "activity call": "inactive"}
{"Target gene": "TRIAP1", "TNF reporter robust z-score": -0.7, "activity call": "inactive"}
{"Target gene": "TRIAP1", "TNF reporter robust z-score": -0.2, "activity call": "inactive"}

Continued.
{"Target gene": "TRIM16", "TNF reporter robust z-score": 1.65, "activity call": "inactive"}
{"Target gene": "TRIM16", "TNF reporter robust z-score": 5.32, "activity call": "active"}
{"Target gene": "TRIM16", "TNF reporter robust z-score": 0.35, "activity call": "inactive"}
{"Target gene": "TRIM16", "TNF reporter robust z-score": 1.83, "activity call": "inactive"}
{"Target gene": "ST6GALNAC3", "TNF reporter robust z-score": -0.69, "activity call": "inactive"}
{"Target gene": "ST6GALNAC3", "TNF reporter robust z-score": 1.47, "activity call": "inactive"}
{"Target gene": "ST6GALNAC3", "TNF reporter robust z-score": 0.48, "activity call": "inactive"}
{"Target gene": "ST6GALNAC3", "TNF reporter robust z-score": 2.61, "activity call": "inactive"}
{"Target gene": "ZNF212", "TNF reporter robust z-score": 0.1, "activity call": "inactive"}
{"Target gene": "ZNF212", "TNF reporter robust z-score": -0.19, "activity call": "inactive"}
{"Target gene": "ZNF212", "TNF reporter robust z-score": 0.43, "activity call": "inactive"}
{"Target gene": "ZNF212", "TNF reporter robust z-score": 0.63, "activity call": "inactive"}
{"Target gene": "CD55", "TNF reporter robust z-score": -0.23, "activity call": "inactive"}
{"Target gene": "CD55", "TNF reporter robust z-score": 0.25, "activity call": "inactive"}
{"Target gene": "CD55", "TNF reporter robust z-score": 0.59, "activity call": "inactive"}
{"Target gene": "CD55", "TNF reporter robust z-score": 0.22, "activity call": "inactive"}
{"Target gene": "SIK2", "TNF reporter robust z-score": 0.81, "activity call": "inactive"}
{"Target gene": "SIK2", "TNF reporter robust z-score": -0.82, "activity call": "inactive"}
{"Target gene": "SIK2", "TNF reporter robust z-score": -0.72, "activity call": "inactive"}
{"Target gene": "SIK2", "TNF reporter robust z-score": -1.49, "activity call": "inactive"}
{"Target gene": "SLC22A10", "TNF reporter robust z-score": -0.09, "activity call": "inactive"}
{"Target gene": "SLC22A10", "TNF reporter robust z-score": 1.53, "activity call": "inactive"}
{"Target gene": "SLC22A10", "TNF reporter robust z-score": 0.88, "activity call": "inactive"}
{"Target gene": "SLC22A10", "TNF reporter robust z-score": 2.8, "activity call": "active"}
